Test results as given in publication PMC9215249.

Biological target: T1, myc-ANXA1 (porcine (cDNA from PK15 cells)) (UniProt P19619)
T1 sequence: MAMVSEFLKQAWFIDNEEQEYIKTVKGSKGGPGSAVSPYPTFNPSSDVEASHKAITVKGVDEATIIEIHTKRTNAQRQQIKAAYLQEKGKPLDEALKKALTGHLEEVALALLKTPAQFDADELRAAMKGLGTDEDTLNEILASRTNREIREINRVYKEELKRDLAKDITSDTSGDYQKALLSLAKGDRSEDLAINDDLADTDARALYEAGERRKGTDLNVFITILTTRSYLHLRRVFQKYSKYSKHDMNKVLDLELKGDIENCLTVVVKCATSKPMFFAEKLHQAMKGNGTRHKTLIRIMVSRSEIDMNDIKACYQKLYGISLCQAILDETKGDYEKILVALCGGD
Assay: co-IP

binding: no binding
Substance: IRF3

No constants are given. Whether binding was seen depends on the method and setting. In cells and extracts the contact can be indirect. Sequences can lack the tags named with a protein.
